Literature values, collected in patent US8617611B2, “Polymeric compositions comprising therapeutic agents in crystalline phases, and methods of forming the same” (Cordis Corporation, priority 2005, dated 2013).

CO[C@H]1C[C@@H]2CC[C@@H](C)[C@@](O)(O2)C(=O)C(=O)N2CCCC[C@H]2C(=O)O[C@H]([C@H](C)C[C@@H]2CC[C@@H](O)[C@H](OC)C2)CC(=O)[C@H](C)/C=C(\C)[C@@H](O)[C@@H](OC)C(=O)[C@H](C)C[C@H](C)/C=C/C=C/C=C/1C [Sirolimus]
solubility in organic solvents (dioxane, chloroform, acetone, acetonitrile, benzyl alcohol): highly soluble
solubility in water (water): insoluble
